Laboratory results from paper PMC8998557, “A Novel Family of Winged-Helix Single-Stranded DNA-Binding Proteins from Archaea”.
Results are given in words; binding and its absence hold for the method and conditions named.

Molecular target: Sul7s from Sulfolobus islandicus Rey15A (SiRe_1983) (Sulfolobus islandicus Rey15A) (UniProt F0NBY5)
Test: AUC; sedimentation velocity, absorbance at 280 nm, 20 °C, 50,000 rpm, 50 mM Tris-HCl pH 6.8, 50 mM NaCl; both purified

binding: no binding
B1: Sul7s from Sulfolobus islandicus Rey15A (SiRe_1983) (protein, UniProt F0NBY5 1-59)
chain: MEDVKQSVEKIIKDREWVTFNDLLKYIPYPAPEVYDALSQLIKENKVGRRGRYFYYIKR
